Test [1] can be described thus: qHTS assay for small molecule antagonists of peroxisome proliferator-activated receptor gamma signaling (AID 588537). The conditions noted are these: HEK293 PPARg-UAS-bla, beta-lactamase ratio, antagonist mode; measured here: W460 blue channel. In short, it runs like this: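 Step one: plate 3000 HEK293 UAS-bla cells per well in medium with 1% stripped serum and hold 6-6.5 h at 37 C. Step two: add compound and 50 nM agonist for 16 h. Step three: CCF4 loading, fluorescence read.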
In general terms: qHTS replaces the single test concentration by a dilution series.

Test [2] in a line: qHTS assay for small molecule agonists of retinoid X receptor alpha signaling (AID 588544). Particulars: HEK293T RXRa-UAS-bla, beta-lactamase reporter, 18 h; 530 nm emission.
Test [3] is described as follows: qHTS assay for small molecule antagonists of vitamin D receptor signaling (AID 588541). Particulars: HEK293T VDR-UAS-bla, beta-lactamase ratio, antagonist mode; measured here: W460 blue channel (cell viability).
Test [4] can be described thus: qHTS assay for small molecule antagonists of retinoid X receptor alpha signaling (AID 588546).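 Further: cells stimulated with 9-cis-retinoic acid as agonist; on the % scale 0 is the no-effect control and ±100 the full control effect.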 The conditions noted are these: HEK293T RXRa-UAS-bla, beta-lactamase ratio, antagonist mode; measured here: W530 green channel, cytotoxicity proxy. In short, it runs like this:
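Beta-lactamase reporter inhibition, read as CCF4 fluorescence ratio (ex 405, em 460/530 nm) after 2 h at RT. HEK293T UAS-bla cells, 2500/well, were stimulated with 9-cis-RA at 500 or 100 nM final alongside test compound for 18 h at 37 C.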

The results in this text go back to PubChem BioAssay (NCATS).

SMILES strings stand for the structures. Where “and” joins values, the source holds several entries; their conditions need not be identical. Equal values may be shown once. The list shows a part of the results. The main result of the screen is listed elsewhere. These columns were measured beside it and carry no call. Compounds called inactive in the main read-out are mostly missing here. For part of these data: The note in brackets gives the kind of curve behind each potency; many fits are weak.

Take `Clc1ccc(C(Cl)(Cl)Cl)cc1`: the AC50 in test [1] was 0.0355 µM [falling, full curve, poor fit].

In the case of `ClCc1ccccc1`, the AC50 in test [1] is 44.7 µM [rising, single point].

Regarding `COP(=O)(OC)O/C(C)=C/C(=O)N(C)C`, the AC50 in test [1] is 0.0141 µM [falling, full curve, poor fit].

Regarding `ClC(Cl)C(Cl)Cl`, the AC50 in test [1] was 44.7 µM [rising, single point].

For the compound `FC(F)(F)c1ccc(OCCCOc2c(Cl)cc(OCC=C(Cl)Cl)cc2Cl)nc1`, the AC50 in test [1] is 0.00355 µM [falling, full curve, poor fit].

Turning to `C=CCC1=C(C)[C@@H](OC(=O)[C@@H]2[C@@H](C=C(C)C)C2(C)C)CC1=O`, in test [1], the AC50 is 0.00126 µM [falling, full curve, poor fit].

On to `Cc1ccccc1O`, for which the AC50 in test [1] is 0.002 µM [falling, full curve, poor fit].

Turning to `O=C(O)C(Cl)Br` (configuration not stated), in test [1], the AC50 was 50.1 µM [rising, single point].

Regarding `CC(O)CCl` (configuration not stated), in test [1], the AC50 is 0.00282 µM [falling, full curve, poor fit].

With `CCC(=O)Nc1ccc(Cl)c(Cl)c1`, the AC50 in test [1] is 0.0708 µM [falling, full curve, poor fit].

`COP(N)(=O)SC` (configuration not stated): the AC50 in test [1] was 1.26 nM [falling, full curve, poor fit] and 794 µM [falling, partial curve, poor fit].

For the compound `Cc1cccnc1`, the AC50 in test [1] is 63.1 µM [rising, single point].

As for `CC1(C)C(C(=O)OC(C#N)c2cccc(Oc3ccccc3)c2)C1(C)C` (configuration not stated), in test [1], the concentration at half-maximal activity (AC50) was 15.8 µM [falling, partial curve, poor fit].

Turning to `CC(=O)/C=C/c1ccccc1`, the AC50 in test [1] is 50.1 µM [rising, single point].

For the compound `Cc1ccnc2c1NC(=O)c1cccnc1N2C1CC1`, the AC50 in test [1] was 50.1 µM [rising, single point].

With `c1cc2ccc3cccc4ccc(c1)c2c34`, the AC50 in test [1] is 50.1 µM [rising, single point].

As to `c1ccc2c(c1)CCCC2`, the AC50 in test [1] was 50.1 µM [rising, single point].

Take `CCOP(=O)(OCC)SCSC(C)(C)C`: the AC50 in test [1] is 0.00158 µM [falling, full curve, poor fit].

For the compound `CCC(C)(C)c1cc(-n2nc3ccccc3n2)c(O)c(C(C)(C)CC)c1`, the AC50 in test [1] was 0.00112 µM [falling, full curve, poor fit].

In the case of `CC(C)OS(C)(=O)=O`, in test [1], the AC50 was 31.6 µM [rising, single point].

In the case of `CCOC(=O)CBr`, in test [1], the AC50 is 50.1 µM [rising, single point].

With `c1ccc2c(c1)Nc1ccccc1S2`, the AC50 in test [1] is 39.8 µM [falling, partial curve, poor fit].

Consider `Oc1cc(Cl)ccc1Cl`, for which the AC50 in test [1] was 50.1 µM [rising, single point].

For `CC(C)(C)OOC(C)(C)C`, in test [1], the AC50 was 50.1 µM [rising, single point].

Consider `OCC1CO1` (configuration not stated), for which, in test [1], the AC50 was 50.1 µM [rising, single point]. Further, the max response in test [2] is -17.9%.

Take `C=CCBr`: in test [1], the AC50 was 50.1 µM [rising, single point].

As for `COP(=O)(OC)Oc1ccc([N+](=O)[O-])cc1`, the AC50 in test [1] was 31.6 µM [falling, partial curve, poor fit]; in test [3], 35.5 µM [falling, partial curve, poor fit]. Further, the max response is -38.2% in test [2] and -9.1% in test [4].

`COC(=O)NC(=S)Nc1ccccc1NC(=S)NC(=O)OC`: the AC50 in test [1] was 0.00316 µM [falling, full curve, poor fit].

As to `CCCCOC(=O)c1ccccc1C(=O)OCc1ccccc1`, in test [1], the AC50 is 50.1 µM [falling, single point].

In the case of `C=CCOC(Cn1ccnc1)c1ccc(Cl)cc1Cl` (configuration not stated), the AC50 in test [1] was 7.08 µM [falling, partial curve, poor fit] and 50.1 µM [falling, partial curve, poor fit].

Regarding `CCc1cccc(C)c1N(C(=O)CCl)C(C)COC` (configuration not stated), the AC50 in test [1] was 31.6 µM [falling, partial curve, poor fit]. In test [2], the max response is 14.3%.

Regarding `C=C(Cl)CCl`, the AC50 in test [1] was 44.7 µM [rising, single point].

On to `Nc1ccc(Cl)c(Cl)c1`, for which the AC50 in test [1] is 20 µM [falling, partial curve, poor fit].

As to `Oc1ccccc1`, the AC50 in test [1] is 50.1 µM [rising, single point] and 28.2 nM [falling, full curve, poor fit]. Further, the max response in test [2] was -9.61%.

For the compound `Cc1ccc(N=CN(C)C=Nc2ccc(C)cc2C)c(C)c1`, the AC50 in test [1] is 0.0224 µM [falling, full curve, poor fit]. Further, in test [2], the max response stood at 8.14%.

What is called AC50 is the concentration giving half of the maximal activity seen.
